Values from PubChem BioAssay AID1159578 (Peter MacCallum Cancer Centre, 2015)

- Aim: 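Genome-wide hunt for genes controlling movement of lymphatic endothelial cells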 (primary screen)
- Cells: human lymphatic endothelial cells
- Knock-down reagent: siRNA pool against human genes, 40 nM
- Time to read-out: 48 h after transfection
- Measurement: 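Cells stained with dye and imaged after a scratch; covered wound area and nuclei counted, duplicates averaged, migration set against mock wells and turned into a robust z-score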
- Scale: migration robust z-score: higher = faster migration into the scratch; migration relative to mock: higher = more scratch area covered than mock; nuclei per well: higher = more cells in the well
- Call rule: 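Migration changed when robust z exceeds 2 or falls below -2 and mean nuclei number is at least 3300; otherwise not called changed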
- Meaning of the calls: active = migration changed; inactive = no migration change, or too few cells
Shown is a random part of about 18,000 reagents. About 1,030 of all reagents (5.7%) count as active. 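Inactive calls also include pools with fewer than 3300 nuclei, whose migration was not assessed.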 Raw values vary from plate to plate and are shown uncorrected. A number with no mark means an inactive call.

no.	gene knocked down	migration robust z-score	migration class with cell-count check	migration relative to mock	nuclei per well, duplicate mean
1	IRX1	-0.15	migration z between -2 and 2; enough cells	0.85	5763
2	NFKBIA	-0.86	migration z between -2 and 2; enough cells	0.66	5290
3	ATPSCKMT	-1.38	migration z between -2 and 2; enough cells	0.53	5761
4	WDR90	-0.64	migration z between -2 and 2; enough cells	0.72	5844
5	TDRD7	-1.14	migration z between -2 and 2; enough cells	0.59	5476
6	ZNF503	-0.41	migration z between -2 and 2; enough cells	0.78	6328
7	WDR38	2.02 (active)	migration z above 2; enough cells	1.41	6419
8	TMEM125	-2.78 (active)	migration z below -2; enough cells	0.16	4851
9	SPOCD1	-0.34	migration z between -2 and 2; enough cells	0.8	6315
10	CPN2	-4.22 (active)	migration z below -2; enough cells	-0.01	5104
11	SLC45A2	0.94	migration z between -2 and 2; enough cells	1.13	6286
12	CFAP20	-1.79	migration z between -2 and 2; enough cells	0.43	7383
13	DIMT1	0.8	migration z between -2 and 2; enough cells	0.96	6688
14	HMX2	1.04	migration z between -2 and 2; enough cells	1.16	5954
15	GOLPH3	-1.94	migration z between -2 and 2; enough cells	0.38	3960
16	CEND1	-0.18	migration z between -2 and 2; enough cells	0.84	6398
17	DNAL4	-0.24	migration z between -2 and 2; enough cells	0.76	4216
18	MTF2	-0.68	migration z between -2 and 2; enough cells	0.68	4634
19	PEAK1	-1.01	migration z between -2 and 2; enough cells	0.61	5555
20	DLK1	-1.74	migration z between -2 and 2; enough cells	0.43	6148
21	KRTAP5-6	0.94	migration z between -2 and 2; enough cells	1.13	5466
22	PRIM2	-3.63	under 3300 nuclei; migration not judged	0.11	2230
23	EIPR1	0.72	migration z between -2 and 2; enough cells	1.07	5824
24	PRSS1	0.08	migration z between -2 and 2; enough cells	0.82	5679
25	CHORDC1	-0.44	migration z between -2 and 2; enough cells	0.77	7216
26	APEX2	0.83	migration z between -2 and 2; enough cells	0.96	4752

10 entries already listed, ordered by “migration robust z-score”, highest first.
gene knocked down	migration robust z-score	migration class with cell-count check	migration relative to mock	nuclei per well, duplicate mean
HMX2	1.04	migration z between -2 and 2; enough cells	1.16	5954
SLC45A2	0.94	migration z between -2 and 2; enough cells	1.13	6286
DIMT1	0.8	migration z between -2 and 2; enough cells	0.96	6688
CEND1	-0.18	migration z between -2 and 2; enough cells	0.84	6398
DNAL4	-0.24	migration z between -2 and 2; enough cells	0.76	4216
MTF2	-0.68	migration z between -2 and 2; enough cells	0.68	4634
PEAK1	-1.01	migration z between -2 and 2; enough cells	0.61	5555
CFAP20	-1.79	migration z between -2 and 2; enough cells	0.43	7383
GOLPH3	-1.94	migration z between -2 and 2; enough cells	0.38	3960
CPN2	-4.22 (active)	migration z below -2; enough cells	-0.01	5104

The listing continues:
no.	gene knocked down	migration robust z-score	migration class with cell-count check	migration relative to mock	nuclei per well, duplicate mean
27	AP1G1	1.04	migration z between -2 and 2; enough cells	1.15	7382
28	MIR99AHG	2.26 (active)	migration z above 2; enough cells	1.48	4649
29	TCHHL1	0.68	migration z between -2 and 2; enough cells	1.06	4821
30	ACTL7B	0.16	migration z between -2 and 2; enough cells	0.92	4391
31	PRSS8	-0.54	migration z between -2 and 2; enough cells	0.7	4670
32	POLG	0.05	migration z between -2 and 2; enough cells	0.82	4408
33	FAM174B	0.1	migration z between -2 and 2; enough cells	0.92	5986
34	MYLIP	-0.28	migration z between -2 and 2; enough cells	0.75	6493
35	MYO10	-0.42	migration z between -2 and 2; enough cells	0.72	5895
36	ANLN	0.46	migration z between -2 and 2; enough cells	1	4292
37	PJVK	0.4	migration z between -2 and 2; enough cells	0.99	6005
38	DHX57	0.66	migration z between -2 and 2; enough cells	1.05	4854
39	PSMF1	-3.22 (active)	migration z below -2; enough cells	0.05	4636
40	COG8	-0.3	migration z between -2 and 2; enough cells	0.8	5406
41	KCNA4	-0.08	migration z between -2 and 2; enough cells	0.79	5165
42	ACTL9	-0.72	migration z between -2 and 2; enough cells	0.7	5094
43	DUSP6	-0.05	migration z between -2 and 2; enough cells	0.8	5975
44	C2CD2	-0.82	migration z between -2 and 2; enough cells	0.67	5868
45	GALNT16	-0.54	migration z between -2 and 2; enough cells	0.7	6604
46	SOWAHC	0.1	migration z between -2 and 2; enough cells	0.91	6056
47	ATP2B2	-1.14	migration z between -2 and 2; enough cells	0.58	5188
48	PHYH	0.23	migration z between -2 and 2; enough cells	0.85	6114
49	PBK	0.21	migration z between -2 and 2; enough cells	0.84	6553
50	FCER1A	1.06	migration z between -2 and 2; enough cells	1.01	5442
51	ATG10	-1.42	migration z between -2 and 2; enough cells	0.52	5622
52	GIPC3	-0.22	migration z between -2 and 2; enough cells	0.82	5739
53	IDUA	0.62	migration z between -2 and 2; enough cells	0.92	5797
54	C2orf68	-1.73	under 3300 nuclei; migration not judged	0.43	2670
55	MRPL54	0.12	migration z between -2 and 2; enough cells	0.92	4495
56	ZNG1E	0.16	migration z between -2 and 2; enough cells	0.92	7222
57	ANO5	0.36	migration z between -2 and 2; enough cells	0.98	6106
58	ZNF764	0.9	migration z between -2 and 2; enough cells	1.12	4923
59	RAB18	-0.36	migration z between -2 and 2; enough cells	0.74	5626
60	CILK1	0.16	migration z between -2 and 2; enough cells	0.84	5299
61	NDST1	0.09	migration z between -2 and 2; enough cells	0.91	7198
62	DCLK3	0.57	migration z between -2 and 2; enough cells	0.92	6134
63	SEPHS2	0.32	migration z between -2 and 2; enough cells	0.86	6350
64	KRTAP5-11	-0.24	migration z between -2 and 2; enough cells	0.82	5548
65	CARNMT1	-0.15	migration z between -2 and 2; enough cells	0.85	6556
66	NLRP14	-0.52	migration z between -2 and 2; enough cells	0.7	3510
67	FXR1	0.64	migration z between -2 and 2; enough cells	1.05	5508
68	GAGE7	0.02	migration z between -2 and 2; enough cells	0.88	4721
69	BHLHE41	1.83	migration z between -2 and 2; enough cells	1.36	6983
70	HBG1	-0.91	migration z between -2 and 2; enough cells	0.63	5466
71	PPM1L	-0.5	migration z between -2 and 2; enough cells	0.71	6074
72	MRPS5	-0.36	migration z between -2 and 2; enough cells	0.79	5680
73	FBLN7	0.52	migration z between -2 and 2; enough cells	1.01	5724
